Reference: the supplement of paper PMC5949888
Most values lie at the floor of the assay. Slopes are relative: functional sequences can read slightly below zero.

These substances were tested on Saccharomyces cerevisiae PS128 hsf1 delta, HSF1(1-493) fusion (assay: growth estimate (transactivation domain function in HSF1 fusion, heat-shock survival) (a.u. (slope of normalised read count over time)); higher = stronger growth at 37°C, i.e. more transactivation activity). Settings: library: random library.

Substance	growth estimate
VRSIGTHGQVQPTAVRRQQL	< -0.25
LCGANRGVPWGHLRR	< -0.25
PAPICAVLLSVMATNGSHLR	< -0.25
TYCSLR	< -0.25
KVSPLSRSVRYPLGSGARKV	< -0.25
LVGVRITCRRRPSKTITESP	< -0.25
LGVSRAGACRDFK	< -0.25
GGARFDEGGNALGNDRV	< -0.25
WGGRFLASGGR	< -0.25
QPVWPSYRRPARLYLSIRVG	< -0.25
DIVRGNFGGLTQRRVGLCTR	< -0.25
VSE	< -0.25
AGRKSGHANDLAGDRIPRFH	< -0.25
CFGRHHVQLTAL	< -0.25
DHLFCEIRS	< -0.25
ILYMVWRILSLTIVRNWLRL	< -0.25
PTVSTGV	< -0.25
EVLPVGVTIDLRLHPCRRDH	< -0.25
WFFLRVHYGSLMKDFLGDFW	< -0.25
HNK	< -0.25
YSRSCSWAGSSLGFRHMLDL	< -0.25
ETYAEHHGKRNNALAK	< -0.25
RYQGVIRAMIVSRCTGWHGI	< -0.25
NTQGMRGTFRKFREARGLA	< -0.25
GLIMSRVLYSTYTQHPTISR	-0.246

Substance	growth estimate
GAQSDLVYSFVQTVFGLSLW	< -0.25
IPVARFSRCSIGEVYGPIWK	< -0.25
VHRFRYSLEAARSRLKIYPP	-0.231
PPGAWVPLGKVVPKVAWRVA	< -0.25
NTEALAR	< -0.25
ATTRAARDSEKRRNILVPGC	< -0.25
IRWSCALDCAFPGRSTQVSN	-0.145
TQFCRLI	< -0.25
TCRKAS	< -0.25
MTKLRSRRLGH	< -0.25
SSAMDCVLSAPEVY	< -0.25
RILASPVASV	< -0.25
RAGA	< -0.25
RQTFSRGVNPLDSVLTRVHR	< -0.25
VIIWSCHSR	-0.243
QYMSKLVDFSNFRIQNSTSA	< -0.25
RSHYTLDGLK	< -0.25
ATGISRLF	< -0.25
PSASDGVESGVPLTASLGSP	< -0.25
HSQAGEASRYKLIATTSES	< -0.25
AGPMWSYVGGCVWDRTFFI	< -0.25
GKQRVV	< -0.25
MTEGLAGLAWCSGSVIPDSV	< -0.25
KTSSGAARCP	-0.246
TRFLTSNMHSSVGLFACLRS	< -0.25

Substance	growth estimate
LGDGFAVLRVQLLYARSLEQ	< -0.25
GKGGGASASPLHFRVKLRAA	< -0.25
KRSDL	< -0.25
DTSLNSAGRGGT	< -0.25
RGRRDVQEDSVRGKLTLPHG	< -0.25
CIGTGIE	< -0.25
RWRISVRL	< -0.25
MTFVVSVPCPGNPSLAYRVS	< -0.25
QLRRMACETKVV	< -0.25
SVCCKRFRRPLLCRHTIFLG	< -0.25
VVGTLAPGFVTPSHRAC	< -0.25
LPTPGRG	< -0.25
ESILFLHYSRTCVQIQCLAR	< -0.25
GVDLRLGSTYILRALSASCK	< -0.25
SRVRLACVPVCHTGLTYQCS	< -0.25
LPRAGTALGRHWPSTITNGA	< -0.25
GRWEVRGIRRTATCCTVSVL	< -0.25
TLDQNVSLRLVFPVKLRQGN	< -0.25
PETGSAIGCSVSGQITFVAQ	< -0.25
RNRFAAGAVTLDHYSSPISS	< -0.25
RVVTSETYGWCRPVAIGFPG	< -0.25
GREPDREGRETYSPWAHITF	< -0.25
FQAPTWLEGYTSRSADFYQR	< -0.25
IQERSHPVISGMGDLHDLAA	< -0.25
GQPQVYIVPHVGVAPDSSLS	< -0.25

Random excerpt: 4 records from the list.
Substance	growth estimate
FQAPTWLEGYTSRSADFYQR	< -0.25
GREPDREGRETYSPWAHITF	< -0.25
GKGGGASASPLHFRVKLRAA	< -0.25
RNRFAAGAVTLDHYSSPISS	< -0.25

The list goes on.

Substance	growth estimate
LIPAQGGAVGLYWTCSVSST	-0.198
VVQPMAHVHGLSQHGDRCLT	-0.186
MANQTSNSRFIERGHSWTLP	< -0.25
SAGKSFGGNTDLPLVIA	< -0.25
DMPPCVGKHCPQDAVGTSTR	< -0.25
RPDNCDTSASCLTVG	< -0.25
QGFIYYGLTMSLTP	< -0.25
KLSTPAARVTGVSTHSLR	< -0.25
HRSVTLYWHNFGLSWLPGQC	< -0.25
LGLWSYCNTGTRVGD	< -0.25
RLHKIDRASRAKQ	< -0.25
KKILCP	< -0.25
EGQFSFYRGGLVTA	< -0.25
GGRPSHAAPPSPGRVTKDPG	< -0.25
LFYP	< -0.25
LGDAQPEDIETHRAGA	< -0.25
QSLLEQIEVFDWRSRCIASG	< -0.25
ACATNALSDFRGNVGSKFLD	< -0.25
CEMQSTF	< -0.25
VLSRLRRALKVIWVSVRSLG	< -0.25
SPLSGLEHDLNYSKTIPQQH	< -0.25
LRKAISLRPI	< -0.25
RWILAHC	< -0.25
